## Screening data, single-dose tests

By UniProt entry, the sequences of proteins in these tests, tags left out. Residues count along the entry.
UniProt Q4DA54, 1-478: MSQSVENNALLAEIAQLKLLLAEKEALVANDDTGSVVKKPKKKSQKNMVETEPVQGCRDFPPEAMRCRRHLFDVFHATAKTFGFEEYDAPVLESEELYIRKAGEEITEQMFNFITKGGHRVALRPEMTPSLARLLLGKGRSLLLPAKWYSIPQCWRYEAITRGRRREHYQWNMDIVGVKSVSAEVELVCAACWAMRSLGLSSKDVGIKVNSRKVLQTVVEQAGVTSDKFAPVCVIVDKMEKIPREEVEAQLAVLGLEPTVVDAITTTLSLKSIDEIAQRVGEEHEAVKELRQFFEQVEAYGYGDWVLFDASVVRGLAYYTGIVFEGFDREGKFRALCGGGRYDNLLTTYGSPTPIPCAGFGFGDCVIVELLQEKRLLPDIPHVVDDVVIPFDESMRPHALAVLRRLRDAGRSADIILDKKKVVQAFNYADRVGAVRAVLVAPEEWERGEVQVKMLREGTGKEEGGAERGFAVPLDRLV
UniProt I6X8D2, whole entry: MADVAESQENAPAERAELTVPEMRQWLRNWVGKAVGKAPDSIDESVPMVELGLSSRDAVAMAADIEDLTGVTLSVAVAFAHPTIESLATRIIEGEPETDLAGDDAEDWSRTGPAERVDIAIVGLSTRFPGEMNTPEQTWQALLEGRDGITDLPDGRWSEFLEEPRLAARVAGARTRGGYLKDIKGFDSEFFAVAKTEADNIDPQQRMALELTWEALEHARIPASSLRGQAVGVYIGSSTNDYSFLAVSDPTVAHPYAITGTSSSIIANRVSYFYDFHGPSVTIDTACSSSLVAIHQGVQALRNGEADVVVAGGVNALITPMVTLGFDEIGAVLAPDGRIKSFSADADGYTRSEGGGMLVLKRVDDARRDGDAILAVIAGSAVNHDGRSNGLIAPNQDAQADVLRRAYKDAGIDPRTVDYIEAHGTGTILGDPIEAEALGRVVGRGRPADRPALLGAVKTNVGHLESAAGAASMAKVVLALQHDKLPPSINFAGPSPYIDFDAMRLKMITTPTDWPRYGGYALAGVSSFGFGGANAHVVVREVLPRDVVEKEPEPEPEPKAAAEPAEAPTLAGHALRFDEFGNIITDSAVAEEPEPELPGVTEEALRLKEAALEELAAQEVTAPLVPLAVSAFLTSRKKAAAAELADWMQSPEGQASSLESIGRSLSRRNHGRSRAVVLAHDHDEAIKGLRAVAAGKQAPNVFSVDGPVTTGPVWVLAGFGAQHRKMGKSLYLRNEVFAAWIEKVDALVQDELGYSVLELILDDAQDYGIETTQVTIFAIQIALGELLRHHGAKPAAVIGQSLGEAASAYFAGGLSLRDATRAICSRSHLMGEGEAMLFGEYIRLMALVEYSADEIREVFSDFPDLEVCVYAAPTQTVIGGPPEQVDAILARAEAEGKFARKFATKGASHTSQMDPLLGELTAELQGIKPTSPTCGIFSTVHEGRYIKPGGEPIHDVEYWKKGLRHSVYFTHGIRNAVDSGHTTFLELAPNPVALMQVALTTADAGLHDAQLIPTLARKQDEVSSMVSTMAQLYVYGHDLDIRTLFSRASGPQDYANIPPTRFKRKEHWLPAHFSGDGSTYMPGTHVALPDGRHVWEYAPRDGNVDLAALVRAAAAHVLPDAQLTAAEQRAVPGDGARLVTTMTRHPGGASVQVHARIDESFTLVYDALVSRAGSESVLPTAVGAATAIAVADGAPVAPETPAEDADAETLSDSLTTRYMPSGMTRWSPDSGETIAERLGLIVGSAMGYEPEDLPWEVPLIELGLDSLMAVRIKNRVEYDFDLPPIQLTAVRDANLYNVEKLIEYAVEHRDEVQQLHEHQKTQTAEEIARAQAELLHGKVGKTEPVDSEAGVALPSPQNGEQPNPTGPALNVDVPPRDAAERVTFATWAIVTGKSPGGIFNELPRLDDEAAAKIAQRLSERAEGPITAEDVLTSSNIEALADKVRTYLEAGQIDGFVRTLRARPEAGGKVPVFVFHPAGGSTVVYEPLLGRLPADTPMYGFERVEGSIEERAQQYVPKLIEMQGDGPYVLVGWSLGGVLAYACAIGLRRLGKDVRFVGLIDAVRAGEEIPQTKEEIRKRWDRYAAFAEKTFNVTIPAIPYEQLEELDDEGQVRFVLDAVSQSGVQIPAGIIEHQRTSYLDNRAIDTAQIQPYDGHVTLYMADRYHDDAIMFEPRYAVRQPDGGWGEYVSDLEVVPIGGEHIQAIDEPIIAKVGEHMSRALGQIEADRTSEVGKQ
UniProt P9WNZ1, whole entry: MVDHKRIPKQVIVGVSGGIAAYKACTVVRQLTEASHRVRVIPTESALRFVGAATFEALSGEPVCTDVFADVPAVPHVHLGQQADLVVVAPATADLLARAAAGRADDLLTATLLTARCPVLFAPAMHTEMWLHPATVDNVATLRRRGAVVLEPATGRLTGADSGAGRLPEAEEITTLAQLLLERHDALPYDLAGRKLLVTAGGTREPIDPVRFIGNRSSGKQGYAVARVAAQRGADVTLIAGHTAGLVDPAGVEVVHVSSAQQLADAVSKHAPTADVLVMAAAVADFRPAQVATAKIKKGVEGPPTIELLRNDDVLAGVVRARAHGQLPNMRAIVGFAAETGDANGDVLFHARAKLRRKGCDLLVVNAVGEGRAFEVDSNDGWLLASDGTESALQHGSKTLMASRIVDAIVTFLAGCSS
UniProt Q8IDJ8, 1-583: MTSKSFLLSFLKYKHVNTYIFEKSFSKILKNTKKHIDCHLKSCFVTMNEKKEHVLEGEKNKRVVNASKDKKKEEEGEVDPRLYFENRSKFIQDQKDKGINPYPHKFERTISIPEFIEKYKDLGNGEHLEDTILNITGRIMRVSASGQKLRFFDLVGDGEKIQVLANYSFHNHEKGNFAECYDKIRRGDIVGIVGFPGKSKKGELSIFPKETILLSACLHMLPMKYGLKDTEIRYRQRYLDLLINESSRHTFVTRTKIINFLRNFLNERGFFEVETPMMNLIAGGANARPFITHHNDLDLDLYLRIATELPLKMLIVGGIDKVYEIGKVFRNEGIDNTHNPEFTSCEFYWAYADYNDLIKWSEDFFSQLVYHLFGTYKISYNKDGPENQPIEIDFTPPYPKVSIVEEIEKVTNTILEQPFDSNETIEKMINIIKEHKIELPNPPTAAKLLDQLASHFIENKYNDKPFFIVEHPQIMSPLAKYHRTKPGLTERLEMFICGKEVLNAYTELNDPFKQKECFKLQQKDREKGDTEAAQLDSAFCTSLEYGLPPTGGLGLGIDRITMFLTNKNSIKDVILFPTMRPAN
UniProt P9WFT3, whole entry: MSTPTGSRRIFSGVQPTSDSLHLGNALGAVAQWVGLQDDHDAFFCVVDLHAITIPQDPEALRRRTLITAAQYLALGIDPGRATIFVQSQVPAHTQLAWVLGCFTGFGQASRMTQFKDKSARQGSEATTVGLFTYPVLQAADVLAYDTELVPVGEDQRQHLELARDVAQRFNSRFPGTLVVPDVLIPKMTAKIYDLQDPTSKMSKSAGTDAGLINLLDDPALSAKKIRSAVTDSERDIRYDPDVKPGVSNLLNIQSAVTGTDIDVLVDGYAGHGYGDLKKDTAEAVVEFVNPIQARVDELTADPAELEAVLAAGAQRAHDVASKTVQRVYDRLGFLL

TcHisRS: 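Histidine-tRNA ligase, Trypanosoma cruzi CL Brener (UniProt Q4DA54). Enzyme assay of histidyl-tRNA synthetase; the read-out is not stated. Concentration: 30 µM. The record gives no direction; compounds that gave an IC50 in retests scored well above the rest, so higher reads as stronger inhibition. About 69,000 compounds were tested under these conditions; 0.045% (about 31) showed 50% or more at least once.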
Pks13 thioesterase: 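Polyketide synthase Pks13, Mycobacterium tuberculosis (UniProt I6X8D2). Enzyme assay of the thioesterase domain of polyketide synthase 13; the read-out is not stated. Compounds at 30 µM. Higher reads as stronger inhibition (inferred from which compounds were picked for retests). Of about 67,000 compounds tested this way, about 300 (0.46%) reached 50% or more in at least one test.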
CoaBC: 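Coenzyme A biosynthesis protein CoaBC, Mycobacterium tuberculosis (UniProt P9WNZ1). Enzyme assay of CoaBC with a phosphate dye (Biomol Green) read at 650 nm. Compounds at 30 µM. Direction is inferred from only a few compounds that gave an IC50; most scored high, so higher reads as stronger inhibition. Most strong results did not repeat in a second test. About 67,000 compounds were tested under these conditions; 0.06% (about 40) showed 50% or more at least once.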
Leishmania in macrophages: 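Cell assay of Leishmania donovani living inside macrophages; the read-out is not stated. Compounds at 30 µM. Higher reads as stronger inhibition (inferred: compounds with an IC50 in retests scored well above the rest). Of about 69,000 compounds tested this way, about 1,000 (1.5%) reached 50% or more in at least one test.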
PfKRS1: 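Enzyme assay of the cytosolic lysyl-tRNA synthetase in 384-well plates, read by luminescence. Target: Lysine-tRNA ligase, Plasmodium falciparum 3D7 (UniProt Q8IDJ8). Tested at 30 µM. Direction is inferred from only a few compounds that gave an IC50; most scored high, so higher reads as stronger inhibition. Of about 69,000 compounds tested this way, about 49 (0.071%) reached 50% or more in at least one test.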
MtTrpRS: 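Enzyme assay of tryptophanyl-tRNA synthetase; the read-out is not stated. Target: Tryptophan-tRNA ligase, Mycobacterium tuberculosis (UniProt P9WFT3). Tested at 10 µM. Direction is not recorded; retested compounds ran higher, which suggests that high means inhibition. Size under these conditions: about 65,000 compounds, about 64 of them at 50% or above in at least one test.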

The filed quantity is “Percent Effect” (%).
The record does not define 0% and 100%; most values in the screen are far below 50% and negative numbers occur (in some assays of this library far below -100).
This is an unselected part of the compounds tested.
Two or more numbers in one place are separate tests of the same structure; such repeats can differ widely.
A dash means the value is not listed here; it may have been measured.

compound	TcHisRS	Pks13 thioesterase	CoaBC	Leishmania in macrophages	PfKRS1	MtTrpRS
CCN(CCn1cccn1)Cc1nc(-c2ccc(C)o2)oc1C	0	-3.27	2.17	1.707	-8.396	9.511
CCOc1ccc(CC(=O)N2CCCC2c2cc(C)on2)cc1 (stereo not shown)	1.149	-32.35	4.4	19	3.382	-7.603
Cc1nsc(N2CCN(CC(=O)N(C3CC3)C(C)C3CC3)CC2)n1 (stereo not shown)	-0.8929	-12.33	3.145	12.61	-0.09889	3.81
CCOCC(=O)N1CCn2cc(CN(C)Cc3ccco3)nc2C1	1.075	-7.917	12	1.836 and 9.78	0.3369	1.355
CN1CCC(N2CC[C@@H]3[C@@H](CCC(=O)N3CCC3=CCCCC3)C2)CC1	6.704	-23.66	2.571	-	6.362	7.518
O=C(Nc1cccc(OCc2cccc(F)c2)c1)C1COCCO1 (stereo not shown)	0.4149	15.38	-13.39	28.9	-1.335	-0.3552
Cc1nn(C)c2c(=O)n(Cc3ccccc3)nnc12	1.739	-20.91	-39.95	14.25	5.79	0.3886
FC(F)(F)c1ccnc(N2CCCOCC2)c1	1.961	-	5.423	19.95	3.703	2.039
NCC1CCC2(CCN(C(=O)c3ccccn3)CC2)CO1.O=C(O)C(F)(F)F.O=C(O)C(F)(F)F (stereo not shown)	-	-	-	25.44	-	-
COc1cccc(F)c1C(C)NC(=O)NCc1cnc(C)s1 (stereo not shown)	-6.25	-7.617	3.396	33.71	9.988	1.224
Cc1cnc(C(=O)N2CCC3(CC2)CN(c2ccccn2)CCO3)cn1	7.563	-3.103	9.128	18.44	7.588	5.577
c1cncc(-c2ncnc3c2CCN(Cc2ccsc2)CC3)c1	1.869	-39.66	-1.481	-	-0.2547	10.44
O=C(NCc1ccccc1CN1CCC(O)CC1)Nc1ccccc1	4.124	-12.23	2.445	27.37	3.281	-4.464
Cc1ccn(-c2ccnc(N3CCN(c4ncccn4)CC3)n2)n1	1.242	0.09165	4.684	12.52	4.06	5.017
CCn1c(C)cc(C(=O)N2CCCC(c3nc(C)no3)C2)c1C (stereo not shown)	-4.906	-18.01	5.897	22.13	1.773	-0.07819
O=C(O)C(F)(F)F.O=C(O)C(F)(F)F.[H][C@]12CCC[C@@]1(COCC1CCOCC1)CN(Cc1ccccn1)C2	-	-	-	25.67 and 6.018	-	-
CC(C)OC(=O)CN1N=C(C(=O)N2CCCC2)S(=O)(=O)c2ccccc21	3.093	-23.01	2.326	32.11 and 17.5	1.754	-4.483
[H][C@]12C[C@H](C(=O)NC)N(S(C)(=O)=O)[C@@]1([H])CN(C(=O)c1cscn1)C2	-	-	-	-5.047	-	-
O=c1[nH]ncn1-c1cccc(C(F)(F)F)c1	3.125	-17.07	0.2301	21.45	4.358	-0.7148
O=C(O)C(F)(F)F.O=C(O)C(F)(F)F.O=C(O)C(F)(F)F.[H][C@]12C[C@H](C(=O)NCC3CC3)N(C)[C@@]1([H])CN(Cc1csc(C)n1)C2	-	-	-	-10.03	-	-
O=C(NCC1(O)CCOc2ccccc21)Nc1ccc2c(c1)OCO2 (stereo not shown)	5.366	-19.58	1.631	31.5	7.537	-1.498
CCc1nc(C2CCCN2Cc2nnc(C3CCC3)o2)no1 (stereo not shown)	9.038	-17.32	8.593	24.76	1.301	2.419
CCNC(=O)c1ccnc(CC2COc3c(cccc3OC)C2)c1 (stereo not shown)	5.473	6.883	5.646	-38.35	1.209	-0.153
[H][C@@]12CN(c3ncc(C)cn3)C[C@@]1([H])N(CC1CC1)C(=O)CO2	-	-	-	-2.634	-	-
Cc1ccccc1C1(CNCc2cnc(N3CCOCC3)nc2)CC1	5.263	-8.253	3.559	10.74	5.827	1.29
Cc1nn(-c2ccccc2)c(C)c1CN1CCNCC1	5.217	-0.7388	-1.386	-78.18	-4.439	1.295
CN(C)Cc1nc(-n2cnc(C(=O)NCC3CC3)c2)n2ccccc12	12.85	13.26	2.788	24.45	5.005	-
O=C(O)C(F)(F)F.OCCOCc1n[nH]c2c1CN(Cc1ccco1)C2	-	-	-	1.798	-	-
CC(C)(C)c1coc([C@@H]2COCCN2Cc2c[nH]c3ccccc23)n1	1.493	-20.16	12.38	37.17	4.359	9.382
CCn1cnnc1C1CCN(C(=O)c2cc(OC)ccc2OC)CC1	3.448	-20.69	1.677	-14.09	-0.1954	-0.779
COc1ccccc1Nc1nc2c(s1)C(=O)CN(C(=O)CC(C)C)C2	12.43	30.82	1.807	-7.526 and -7.191	1.703	-
COc1ccccc1-c1c[nH]c(C2CCCN2)n1 (stereo not shown)	4.459	-31.41	-	-	4.751	0.9082
CNC(=O)C(C)CN(C)C(=O)Nc1cc(-n2cccc2)ccc1F (stereo not shown)	4.211	-14.86	-5.179	-0.2465	-2.57	-5.635
COc1ccccc1C(=O)NC(c1ccccn1)[C@H]1CC[C@H](CN)CC1 (stereo partly shown)	7.692	2.936	2.427	15.46 and 15.77	4.271	-
COc1ccc2c(c1)C(NCCc1ccccn1)CCCO2 (stereo not shown)	7.143	-17.43	2.206	14.3	3.214	4.074
O=C(c1cc(Cl)c2c(c1)OCO2)N1CCCC(n2cncn2)C1 (stereo not shown)	2.817	-15.11	2.163	16.76	0.9216	-4.473
[H][C@@]12OCCN(C(=O)c3nn(C)c4ccccc34)[C@@]1([H])CC[C@H]2OC(C)C	-	-	-	12.17	-	-
CCOc1ccc(N2CCCN=C2NC(=O)c2cccc(OC)c2)cc1	2.609	-1.705	5.774	-10.33	1.182	-3.627

Some entries from above, unchanged:

{"compound": "NCC1CCC2(CCN(C(=O)c3ccccn3)CC2)CO1.O=C(O)C(F)(F)F.O=C(O)C(F)(F)F", "stereo": "stereo not shown", "Leishmania in macrophages": 25.44}
{"compound": "CNC(=O)C(C)CN(C)C(=O)Nc1cc(-n2cccc2)ccc1F", "stereo": "stereo not shown", "TcHisRS": 4.211, "Pks13 thioesterase": -14.86, "CoaBC": -5.179, "Leishmania in macrophages": -0.2465, "PfKRS1": -2.57, "MtTrpRS": -5.635}
{"compound": "O=C(Nc1cccc(OCc2cccc(F)c2)c1)C1COCCO1", "stereo": "stereo not shown", "TcHisRS": 0.4149, "Pks13 thioesterase": 15.38, "CoaBC": -13.39, "Leishmania in macrophages": 28.9, "PfKRS1": -1.335, "MtTrpRS": -0.3552}
{"compound": "CCc1nc(C2CCCN2Cc2nnc(C3CCC3)o2)no1", "stereo": "stereo not shown", "TcHisRS": 9.038, "Pks13 thioesterase": -17.32, "CoaBC": 8.593, "Leishmania in macrophages": 24.76, "PfKRS1": 1.301, "MtTrpRS": 2.419}
{"compound": "[H][C@]12C[C@H](C(=O)NC)N(S(C)(=O)=O)[C@@]1([H])CN(C(=O)c1cscn1)C2", "Leishmania in macrophages": -5.047}

Source: ChEMBL document CHEMBL3988442, “University of Dundee, Small-Polar-MMV Screening Library” (2021).